“And” between values parts separate entries of the source, which are not always exact repeats. Equal entries are not always repeated. The list shows a part of the results. Further columns of the screen follow, without active or inactive calls. The list favours compounds with an active or inconclusive main result. Potencies come from curve fits of mixed quality, noted in brackets.
Assay: qHTS Assay for Modulators of Lamin A Splicing
Settings: HeLa LMNA splicing GFP/RFP minigene ratio, 48 h
How it was run: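 S3 HeLa cells stably expressing lamin A-EGFP splicing minigene plus DsRed2, 600 cells/well, 48 h compound exposure at 37C. Laser-scanning cytometry; analysed as GFP (500-530 nm)/RFP (575-640 nm) total intensity ratio; 0.5% DMSO vehicle.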

[1] = measured here: GFP splicing reporter channel
[2] = measured here: RFP viability control channel

Structure (SMILES)	AC50 [1]	AC50 [2]
Cc1cc(C)c(-c2csc(NC(=O)c3cc([N+](=O)[O-])ccc3N3CCOCC3)n2)c(C)c1	11.2 µM [rising, partial curve]	22.4 µM [rising, partial curve]
Cc1cc(C)c(S(=O)(=O)c2ccccc2)c(OC(=O)c2c(Cl)cc(Cl)cc2Cl)n1		31.6 µM [rising, single point]
Cc1cc(C(=O)c2ccc(C(C)(C)C)cc2)c(NC(=O)CCl)s1	6.31 µM [falling, partial curve]	
Cc1ccc(-n2ncc3c(=O)n(CC(=O)N4CCCc5ccccc54)cnc32)cc1C		12.6 µM [rising, single point]
N#C/C(=C/c1ccc(N2CCOCC2)o1)c1nc2ccccc2[nH]1	15.8 µM [falling, single point]	15.8 µM [falling, single point]
C/C(=N\O)c1ccc2c3ccccc3n(C)c2c1	5.62 µM [falling, partial curve]	5.01 µM [falling, partial curve]
O=C1Nc2ccccc2S/C1=C/Nc1cccc(Cl)c1		35.5 µM [falling, single point]
CCn1c(SCc2ccccc2Cl)nc(=O)c2c(C(=O)OC)cc(C3CC3)nc21		28.2 µM [falling, single point]
Cc1cc(/C=C(\C#N)C(=O)NCc2ccco2)c(C)n1-c1ccc(C(=O)O)cc1		0.1 µM [falling, full curve]
CCCCCC1CC(CC(=O)Nc2ccc([N+](=O)[O-])cc2)C(=O)O1 (stereo not given)		35.5 µM [rising, single point]
O=C1OC(N2CCN(c3ccccn3)CC2)c2ccccc21 (stereo not given)		0.2 µM [rising, full curve, poor fit]
O=C(NCc1cccs1)C1CCCN(S(=O)(=O)c2ccc(Br)s2)C1 (stereo not given)		35.5 µM [rising, single point]
CCOC(=O)Cc1csc(NC(=O)c2sc3nc4cc(C)ccc4cc3c2N)n1		20 µM [rising, partial curve, poor fit]
CCOc1ccc(CN(Cc2ccco2)C(c2cccs2)c2nnnn2C(C)(C)C)cc1 (stereo not given)	11.2 µM [rising, single point]	25.1 µM [rising, single point]
Cc1cc(C)n2c(SCC(=O)Nc3ccc(F)cc3F)nnc2n1	0.0178 µM [falling, full curve, poor fit]	
CCOC(=O)c1cc(-c2ccccc2)n(CCC(=O)NC(C)CC)c1C (stereo not given)		11.2 µM [rising, single point]
COc1cccc(OC)c1OCCCCCc1c(C)n[nH]c1C		35.5 µM [rising, single point]
S=C(N/N=C/c1ccccc1Cl)Nc1ccccc1		35.5 µM [falling, single point]
O=c1[nH]c2ccccc2n1C1=CCCC1		12.6 µM [rising, single point]

One compound at a time (already shown).
`Cc1cc(/C=C(\C#N)C(=O)NCc2ccco2)c(C)n1-c1ccc(C(=O)O)cc1` is listed with AC50 [2]: 0.1 µM [falling, full curve]
`S=C(N/N=C/c1ccccc1Cl)Nc1ccccc1` is listed with AC50 [2]: 35.5 µM [falling, single point]
`O=C(NCc1cccs1)C1CCCN(S(=O)(=O)c2ccc(Br)s2)C1` (stereo not given) is listed with AC50 [2]: 35.5 µM [rising, single point]
`O=C1Nc2ccccc2S/C1=C/Nc1cccc(Cl)c1` is listed with AC50 [2]: 35.5 µM [falling, single point]

Further records:

Structure (SMILES)	AC50 [1]	AC50 [2]
O=C(N/N=C/c1ccncc1)/C(=C/c1ccccc1)NC(=O)c1ccccc1		2.51 µM [rising, full curve, poor fit]
Cc1ccc2[nH]c(=O)c(CN(Cc3cccs3)Cc3nnnn3Cc3ccccc3)cc2c1		35.5 µM [rising, single point]
COc1ccc(/C=C(/C(=O)c2cccs2)N2C=CC=CC2=C(C#N)C#N)cc1	35.5 µM [falling, single point]	
O=c1c(N2CCc3ccccc3C2)csc2ccc(Br)cc12	3.98 µM [rising, partial curve]	
Nc1nc(SCC(=O)NN(c2ccccc2)c2ccccc2)n[nH]1	2.24 µM [rising, partial curve, poor fit]	1.12 µM [rising, partial curve]
CC(C)CCN(Cc1ccco1)C(=O)Cn1ncc2c([nH]c3ccccc32)c1=O	3.98 µM [rising, single point]	0.316 µM [rising, single point]
COc1ccc(Oc2nc(C)nc3c2oc2ccccc23)cc1	2.82 µM [rising, single point]	7.08 µM [rising, partial curve]
Cc1cccc(C(=O)Nc2ccc(N3CCN(c4ccc(F)cc4)CC3)c(C(=O)O)c2)c1	0.0282 µM [falling, full curve, poor fit]	
CCOC(=O)c1cc(-c2ccccc2)n(CCCC(=O)Nc2cc(C)ccc2OC)c1C		35.5 µM [falling, single point]
COc1ccccc1Cc1nc2ccccc2nc1SCC(=O)N1CCC(C)CC1	7.08 µM [rising, full curve]	31.6 µM [rising, partial curve]
CCNC(=O)NC(=O)COC(=O)CCCc1nc2ccccc2s1	0.0316 µM [falling, full curve, poor fit]	0.631 µM [falling, full curve]
C=CCn1c(NC(=O)c2ccc(Br)o2)c(S(=O)(=O)c2ccccc2)c2nc3ccccc3nc21	11.2 µM [falling, partial curve]	14.1 µM [falling, partial curve]
CCOc1ccc(C(=O)NCc2ccc3c(c2)CCN3C(=O)c2ccc(C)cc2)cc1OCC	3.98 µM [falling, single point]	
COC(=O)c1sc(N2C(=O)C(O)=C(C(=O)c3ccc(C)o3)C2c2ccc(F)cc2)nc1C (stereo not given)		15.8 µM [rising, single point]
CC(C)(C)c1ccc(NC(=O)CSc2nnc(-c3n[nH]c4ccccc34)o2)cc1		17.8 µM [rising, single point]
COC(=O)c1scc(C)c1N/N=C(\C)c1ccc(F)cc1F	31.6 µM [rising, single point]	
O=C(Nc1nc(-c2ccc(-c3ccccc3)cc2)cs1)c1cnccn1		2.51 µM [rising, full curve, poor fit]
Cc1ccc(S(=O)(=O)Oc2ccc(N3C(=O)C4C5CCC(C5)C4C3=O)cc2)cc1 (stereo not given)	1.12 µM [falling, full curve, poor fit]	10 µM [falling, partial curve]
Cc1ccc(NCCC(=O)c2ccc(Cl)c(Cl)c2)cc1	12.6 µM [falling, single point]	20 µM [falling, single point]

Structure (SMILES)	AC50 [1]	AC50 [2]
Cc1c(Cl)ccc(S(=O)(=O)N2CCN=C2c2ccccc2)c1Cl		31.6 µM [rising, single point]
OC(COC(c1ccc(Cl)cc1)c1ccc(Cl)cc1)CN1CCc2ccccc2C1 (stereo not given)		10 µM [rising, partial curve]
CN(C)CC1CCCCC1OC(=O)c1ccc(Cl)cc1Cl (stereo not given)	5.62 µM [rising, single point]	5.62 µM [rising, single point]
CCn1c(-c2ccc(F)cc2)cnc1SCC(=O)N1CCCCC1C (stereo not given)		35.5 µM [rising, single point]
O=C(NCCC1=CCCCC1)C1CCN(S(=O)(=O)c2ccc(Br)s2)CC1	14.1 µM [rising, single point]	25.1 µM [rising, single point]
COc1ccccc1N1CCN(c2cnccn2)CC1		35.5 µM [rising, single point]
O=C(NCCc1c[nH]c2ccccc12)Nc1cccc2ccccc12		14.1 µM [rising, partial curve, poor fit]
CC(C)NC(=O)c1cc2nc(-c3ccco3)cc(C(F)(F)F)n2n1		14.1 µM [falling, single point]
Cc1ccc(N(CC(=O)Nc2c(C)n(C)n(-c3ccccc3)c2=O)S(C)(=O)=O)c(C)c1		1.41 µM [falling, full curve, poor fit]
c1ccc(-c2nnc3ccc(N4CCC5(CC4)OCCO5)nn23)cc1		4.47 µM [rising, partial curve, poor fit]
Cc1ccc(C(=O)/C=C/c2ccc(-c3ccccc3[N+](=O)[O-])o2)cc1	35.5 µM [falling, single point]	
NC(=O)CCSC(=S)N1CCOCC1	0.00398 µM [rising, full curve, poor fit]	
CC(=O)Nc1sc2c(c1CN1CCN(c3ccccn3)CC1)CCCC2	17.8 µM [rising, partial curve, poor fit]	14.1 µM [rising, partial curve]
O=C1CCCN1CCCNc1ncnc2c1[nH]c1ccccc12		31.6 µM [rising, single point]
CCn1c(COc2cccc(C)c2C)nnc1SCC(=O)N1CCN(c2ccc(OC)cc2)CC1	7.08 µM [rising, partial curve, poor fit]	7.08 µM [rising, partial curve]
C(=N\n1cnnc1)/c1cn(-c2cccs2)nc1-c1ccccc1		17.8 µM [rising, single point]
C[C@H]1O[C@@H](n2cc(F)c(=O)[nH]c2=O)[C@H](O)[C@@H]1O	15.8 µM [rising, single point] and 1 µM [falling, full curve]	1.12 µM [rising, full curve, poor fit] and 562 nM [rising, full curve]
Cc1cc(C)c2sc(N(CCN(C)C)C(=O)c3cc(Cl)sc3Cl)nc2c1	0.0282 µM [rising, full curve, poor fit]	
N=C(N)c1ccc(Cl)cc1	0.501 µM [rising, partial curve, poor fit]	5.01 µM [rising, partial curve, poor fit]
